Laboratory results taken from PubChem BioAssay AID504850 (National Center for Advancing Translational Sciences (NCATS), 2011).
Among all 2,300 compounds or so, about 1,200 (52%) were called active. So high a share suggests a set chosen from earlier hits. Inconclusive results, whose numbers are uncertain, are shown with a selection of clear calls. Calls come from the whole dose curve; as a rule, active = well fitted inhibition curve with a large enough effect; inconclusive = small, poorly fitted or top-dose-only effect, or effect the other way; inactive = no such curve, though single readings can be large or run the other way. Potencies of inconclusive entries are doubtful fits and often do not repeat.

Assay: Confirmation screen for delayed death inhibitors of the malarial parasite plastid, 48 hour incubation; note: nearly all actives have a fitted effect of over 65% in size
Settings: P. falciparum-infected erythrocytes, luciferase growth; series mostly up to 28.7 µM
How it was run: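 Erythrocytes infected with luciferase-expressing P. falciparum (2% hematocrit, 0.1% parasitemia) incubated with compounds 48 hours at 37 C, 5% CO2, in RPMI/Albumax. Growth inhibition scored as reduced luminescence after detection reagent.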
Potency is the fitted concentration of half-maximal effect.

SMILES | Potency
Cc1nn(-c2ccccc2)c(C)c1NC(=O)COC(=O)[C@@H](NC(=O)c1ccccc1)C(C)C | inconclusive: 11.2 µM [inhibitor, partial curve, poor fit]
O=C(CCCl)Nc1nc2c(s1)CCc1ccccc1-2 | inconclusive: 12.6 µM [inhibitor, single point]
COc1cccc(S(=O)(=O)NCc2ccc(C(=O)NCc3ccccn3)cc2)c1 | inactive
COc1ccc(Cn2c(-c3ccccc3)nc3c(c(=O)c4ccccc4n3C)c2=O)cc1 | active: 11.2 µM
COc1ccc(CC(=O)NNC(=O)CN(C)S(=O)(=O)c2ccc(Cl)cc2)cc1OC | inactive
COc1ccc(C(C)=O)cc1CSc1nc2ccccc2c(=O)n1-c1ccccc1C | active: 7.08 µM
Cc1cccn2cc(COc3ccc(-c4ccccc4)cc3)nc12 | inconclusive: 2.51 µM [activator, partial curve, poor fit]
COc1cc2c(cc1OC)CN(C(=O)c1cc(C3CC3)nn1-c1ccccc1)CC2 | inconclusive: 12.6 µM [inhibitor, single point]
COc1cccc(-n2c(SCc3ccccn3)nc3c(c2=O)SCC3)c1 | inconclusive: 14.1 µM [inhibitor, partial curve]
CCc1ccc(-c2cc(C)no2)cc1S(=O)(=O)NCc1ccco1 | inconclusive: 14.1 µM [inhibitor, partial curve, poor fit]
Cc1ccc(C)c(-c2cc(C(=O)Nc3nccs3)c3ccccc3n2)c1 | active: 4.47 µM
N=c1c2c(n(Cc3ccc(Br)cc3)c3c1CCC3)CCCC2 | inconclusive: 0.447 µM [inhibitor, full curve, poor fit]
NC(=O)c1ccc(NC(=O)C#Cc2ccccc2)cc1 | active: 5.01 µM
COc1ccc(CCn2c(-c3ccco3)nc3ccccc3c2=O)cc1OC | inconclusive: 12.6 µM [inhibitor, partial curve, poor fit]
CCc1ccccc1Nc1nc(N)nc(COC(=O)CCC(=O)c2ccc(F)cc2)n1 | active: 8.91 µM
CCc1ccc(Nc2ncc3c(n2)CC(c2ccco2)CC3=O)cc1 (stereo not drawn) | inconclusive: 1 µM [activator, partial curve]
Cc1cc(C(=O)Cn2nc(C(=O)O)c3ccccc3c2=O)c(C)n1CCc1ccc(F)cc1 | inconclusive: 15.8 µM [inhibitor, single point]
Cc1ccc(Cc2cnc(N3C(=N)SC(C)C3=O)s2)cc1 (stereo not drawn) | inactive
COc1ccc(C(=S)N2CCN(c3ccccc3C)CC2)cc1 | inconclusive: 12.6 µM [inhibitor, single point]
COc1ccc(Nc2nnc(-c3ccccc3)c3ccccc23)cc1C(=O)N1CCCCC1 | active: 7.94 µM
O=C(CN1C(=O)/C(=C/c2ccc(F)cc2)SC1=S)N1CCN(CCc2ccccn2)CC1 | inconclusive: 20 µM [inhibitor, single point]
CNC(=S)N(CCc1c(C)[nH]c2ccc(Cl)cc12)Cc1cccnc1 | active: 14.1 µM
N#CCc1ccc(C(=O)c2ccccc2F)s1 | inactive
COc1cc(/C=C2\COC/C(=C\c3ccc(O)c(OC)c3)C2=O)ccc1O | active: 6.31 µM

Individual results from above.
Value of COc1cc2c(cc1OC)CN(C(=O)c1cc(C3CC3)nn1-c1ccccc1)CC2 under Potency: inconclusive: 12.6 µM [inhibitor, single point]
Value of O=C(CN1C(=O)/C(=C/c2ccc(F)cc2)SC1=S)N1CCN(CCc2ccccn2)CC1 under Potency: inconclusive: 20 µM [inhibitor, single point]
Value of CCc1ccc(-c2cc(C)no2)cc1S(=O)(=O)NCc1ccco1 under Potency: inconclusive: 14.1 µM [inhibitor, partial curve, poor fit]

More entries:

SMILES | Potency
COc1cc(CNC2CCCCCCC2)ccc1OCC(N)=O | inconclusive: 12.6 µM [inhibitor, single point]
Cc1onc(-c2c(Cl)cccc2Cl)c1C(=O)NC1CCCCC1 | inconclusive: 14.1 µM [inhibitor, single point]
N#C/C(=C\c1coc2ccccc2c1=O)C(N)=S | inconclusive: 14.1 µM [inhibitor, single point]
COCCn1c(=O)[nH]c2cc(C(=O)NCc3ccccc3)ccc2c1=O | inactive
Cc1ccc(SCC(=O)Nc2ccccc2C(=O)O)cc1 | inactive
Cc1ccc(S(=O)(=O)N2CCN(c3ccc(C(=O)N4CCOCC4)cc3[N+](=O)[O-])CC2)cc1 | active: 7.08 µM
CC1=NCCN1CCNC(=O)Nc1ccc(F)cc1 | inactive
CCCC(=O)Nc1nnc(CC(=O)N2CCCC2)s1 | inactive
O=C(CSc1nc2ccccc2c(=O)[nH]1)Nc1cccc([N+](=O)[O-])c1 | inconclusive: 15.8 µM [inhibitor, single point]
Cc1ccc(Cl)cc1N1CCN(c2cccc[n+]2C)CC1 | active: 3.16 µM
CCC(=O)N1CCc2cc(S(=O)(=O)N3CCN(c4cc(C)ccc4C)CC3)ccc21 | inconclusive: 0.794 µM [inhibitor, full curve, poor fit]
CC(C)Cc1csc(NC(=O)C(C)C)c1C(=O)O | inactive
O=C(Cc1cccc2ccccc12)Nc1ccccc1C(=O)O | inactive
CC(C)(C)C(=O)NNC(=O)c1cc(C(C)(C)C)nn1Cc1ccccc1 | inconclusive: 11.2 µM [inhibitor, partial curve]
O=C(Nc1c2c(nn1-c1ccc([N+](=O)[O-])cc1)CS(=O)(=O)C2)c1cccs1 | inactive
CCC1CCCCN1CCCNC(=O)CNC(=O)c1nn(-c2ccc(OC)c(Cl)c2)c(=O)c2ccccc12 (stereo not drawn) | active: 11.2 µM
Cc1ccc(OCC(=O)NCCCNC(=O)c2ccncc2)cc1 | inconclusive: 15.8 µM [inhibitor, single point]
CCN1CCN(c2ccc(S(=O)(=O)N3CCCCC3)cc2NC(=O)COc2cc(C)ccc2Cl)CC1 | active: 14.1 µM
CCc1cc(SC#N)ccc1N | active: 10 µM
COC(=O)c1cc(=O)n(Cc2ccco2)c(=Nc2ccc(F)cc2)s1 | inconclusive: 15.8 µM [inhibitor, single point]
Cc1c(NC(=S)NC(=O)C(C)(C)C)c(=O)n(-c2ccccc2)n1C | inactive
C=C[C@]1(C)C[C@@H](OC(=O)CSCCN(CC)CC)[C@]2(C)C(C)CC[C@]3(CCC(=O)[C@H]32)[C@@H](C)[C@@H]1O (stereo partly drawn) | active: 14.1 µM
Cc1ccc(Nc2nc(=O)c3cccnc3s2)c(Br)c1 | inactive
O=C(Nc1ccccc1N1CCOCC1)c1ccc(F)c(S(=O)(=O)N2CCOCC2)c1 | inconclusive: 14.1 µM [inhibitor, partial curve]
